Consider two molecules from article PMC10599749.

Experiment [1] deals with T1, phospholipase C-like protein 1 (PLCL1) (human (in 786-O cells; endogenous or from the expression lentivirus not told)) (UniProt Q15111).
T1 sequence: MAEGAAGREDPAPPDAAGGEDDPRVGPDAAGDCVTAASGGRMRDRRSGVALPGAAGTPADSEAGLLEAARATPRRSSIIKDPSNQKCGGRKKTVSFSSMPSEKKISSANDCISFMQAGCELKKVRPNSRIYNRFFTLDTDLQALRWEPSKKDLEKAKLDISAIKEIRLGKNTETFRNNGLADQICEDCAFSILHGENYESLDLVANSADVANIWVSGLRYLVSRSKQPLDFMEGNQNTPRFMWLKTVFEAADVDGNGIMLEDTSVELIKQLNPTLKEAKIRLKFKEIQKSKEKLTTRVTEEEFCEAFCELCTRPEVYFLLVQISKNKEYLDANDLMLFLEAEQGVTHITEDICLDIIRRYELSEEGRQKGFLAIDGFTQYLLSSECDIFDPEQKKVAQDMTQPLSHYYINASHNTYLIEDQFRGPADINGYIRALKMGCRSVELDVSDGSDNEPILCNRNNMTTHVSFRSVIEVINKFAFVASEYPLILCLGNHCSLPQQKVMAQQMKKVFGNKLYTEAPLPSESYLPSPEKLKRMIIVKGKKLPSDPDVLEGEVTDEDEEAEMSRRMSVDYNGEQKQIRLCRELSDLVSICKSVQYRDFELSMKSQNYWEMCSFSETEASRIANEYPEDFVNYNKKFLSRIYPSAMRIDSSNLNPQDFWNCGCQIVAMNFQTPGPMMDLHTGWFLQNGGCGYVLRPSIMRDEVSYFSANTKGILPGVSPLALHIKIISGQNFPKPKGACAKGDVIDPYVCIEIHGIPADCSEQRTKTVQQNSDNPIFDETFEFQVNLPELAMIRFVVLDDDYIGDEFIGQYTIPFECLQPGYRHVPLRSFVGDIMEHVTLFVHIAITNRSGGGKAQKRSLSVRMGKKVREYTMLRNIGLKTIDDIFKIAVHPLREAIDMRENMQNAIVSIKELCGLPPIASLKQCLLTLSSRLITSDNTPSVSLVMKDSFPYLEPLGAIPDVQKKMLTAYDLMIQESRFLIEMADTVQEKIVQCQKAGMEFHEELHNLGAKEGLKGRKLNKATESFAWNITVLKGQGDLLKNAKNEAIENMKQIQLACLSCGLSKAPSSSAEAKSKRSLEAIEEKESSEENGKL
Nature of the experiment: co-IP; 786-O cell lysates; 5 ug PLCL1 antibody, anti-myc antibody or IgG at 4°C overnight, protein A/G magnetic beads 1 hour, low-pH elution, immunoblot with anti-PLCL1 and anti-MYC; reciprocal. Background: A western blot detects proteins with antibodies after separation by electrophoresis.

Experiment [2] has as its target T2, decidual protein induced by progesterone (DEPP) (UniProt Q9NTK1).
T2 sequence: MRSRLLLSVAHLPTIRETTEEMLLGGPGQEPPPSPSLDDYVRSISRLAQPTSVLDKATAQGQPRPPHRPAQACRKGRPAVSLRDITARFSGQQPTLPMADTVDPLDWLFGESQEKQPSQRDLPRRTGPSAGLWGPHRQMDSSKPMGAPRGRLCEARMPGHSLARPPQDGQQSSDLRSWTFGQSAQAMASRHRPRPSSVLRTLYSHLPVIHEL
The experiment is described as above.

Results are given in words; binding and its absence hold for the method and conditions named. In cells and extracts the contact can be indirect. Some results given as binding are weak or reduced against the parent protein; the word gives no strength.

B1: decidual protein induced by progesterone (DEPP) (protein, UniProt Q9NTK1 1-212)
chain: T2 sequence
On to B1, for which, in experiment [1], the binding entry is “binds”.

B2: phospholipase C-like protein 1 (PLCL1) (protein, UniProt Q15111 1-1095)
chain: T1 sequence
For B2, the binding entry in experiment [2] is given as “binds”.
